# PubChem BioAssay AID485314 (National Center for Advancing Translational Sciences (NCATS), 2010)
# The whole screen tested about 340,000 compounds, of which about 4,500 (1.3%) were called active. Inconclusive means that the source gave no clear call. Such entries were picked first, then a sample of the others. Calls come from the whole dose curve; as a rule, active = well fitted inhibition curve with a large enough effect; inconclusive = small, poorly fitted or top-dose-only effect, or another doubt; inactive = no such curve, though single readings can be large or run the other way. Where the call is inconclusive, the potency comes from a doubtful curve fit.
# Molecular target: DNA polymerase beta (Homo sapiens) (UniProt P06746)
# Assay: qHTS Assay for Inhibitors of DNA Polymerase Beta
# Details: Pol beta primer extension/strand displacement, fluorescence kinetic; activity change, negative = inhibition: at 114 µM (top of the series)
# Procedure, shortened: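 Curves were derived by four-parameter Hill fits of normalized qHTS data. The kinetic fluorescent primer-extension read was taken at 0 and 10 min after 50 nM substrate, following a 15 min room-temperature preincubation of 10 nM enzyme with compounds.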
# % is set by controls: 0 for no effect and ±100 for the full control effect; potency is the fitted concentration of half-maximal effect.
SMILES,Potency,"activity change, negative = inhibition"
Cc1ccc(C)c(CN2CCCN(Cc3cc(C)ccc3C)S2(=O)=O)c1,"inconclusive: 3.16 µM [inhibitor, full curve]",–
O=c1[nH]c(Nc2nc3ccccc3o2)nc2c1CCCC2,inactive,–
COc1cc(Nc2c3ccccc3nc3ccccc23)cc(OC)c1OC,active: 14.1 µM,–
COc1ccccc1N1CCN(/N=C/c2c(C)nn(-c3ccccc3)c2C)CC1,"inconclusive: 79.4 µM [inhibitor, single point]",–
Cn1c(SCc2ccccc2Cl)nc2c1c(=O)[nH]c(=O)n2C,"inconclusive: 1.26 µM [inhibitor, full curve, poor fit]",–
Cc1cccc(-c2nc(SCC(=O)Nc3cccc(C(F)(F)F)c3)n3[nH]c(=O)cc3n2)c1,active: 39.8 µM,–
O=C(COc1ccc(Br)cc1Cl)NC(=O)Nc1ccc2c(c1)OCCO2,"inconclusive: 89.1 µM [inhibitor, single point]",–
CCCCn1cc(S(=O)(=O)c2ccc(OC)cc2)c(=O)c2cc(F)c(F)cc21,inactive,–
O=C(NCc1ccc2c3c(cccc13)C(=O)N2)c1cccs1,"inconclusive: 0.282 µM [inhibitor, full curve]",–
Cc1cc(C)c(C#N)c(SCC(=O)c2ccccc2)n1,inactive,–
CCOC(=O)c1c(S(=O)(=O)NCC(=O)Nc2cccc(CC)c2)c(C)n(C)c1C,inactive,–
O=C(Nc1ccc2oc(-c3cccnc3)nc2c1)c1ccc(Br)o1,"inconclusive: 15.8 µM [inhibitor, single point]",–
O=C(O)c1ccccc1C(=O)NCCc1c(C(=O)O)[nH]c2ccc(Cl)cc12,"inconclusive: 0.158 µM [inhibitor, full curve, poor fit]",–
COC(=O)c1nnn(-c2nonc2N)c1CSc1nc2ccccc2s1,"inconclusive: 100 µM [inhibitor, partial curve, poor fit]",–
CC1=CC(C)C(C(=O)O)C(C(=O)O)C1 (stereo unspecified),"inconclusive: 12.6 µM [inhibitor, partial curve, poor fit]",–
CCOC(=O)c1scc(-c2ccc(C)cc2)c1S(=O)(=O)Nc1cc(Cl)ccc1OC,"inconclusive: 100 µM [inhibitor, single point]",–
COc1ccc(C=O)cc1COc1c(F)c(F)cc(F)c1F,inactive,–
COc1ccc(-c2nn(-c3ccccc3)cc2CNCCN2CCOC2=O)c(F)c1,"inconclusive: 89.1 µM [inhibitor, single point]",–
CCOC(=O)C1(Cc2cccc(F)c2)CCN(Cc2cnn(CC)c2C)CC1,"inconclusive: 89.1 µM [inhibitor, single point]",–
N#C/C(=C\c1ccc(Sc2nc3ccccc3[nH]2)o1)c1ccccc1,inactive,–
COC(=O)c1cccc(-n2c(C)cc(C=O)c2C)c1C,"inconclusive: 100 µM [inhibitor, single point]",–
COC(=O)c1ccc(NC(=O)CSc2nnc(Cc3cccn3C)n2-c2ccc(F)cc2)cc1,"inconclusive: 89.1 µM [inhibitor, single point]",–
CN(C(=O)c1ccc2c(c1)N(Cc1ccccc1F)C(=O)c1ccccc1S2)C1CCCCC1,inactive,–
Cc1cccc(NCc2nnc3n2CCCCC3)c1C,inactive,–

SMILES,Potency,"activity change, negative = inhibition"
COc1cc(SC)ccc1C(=O)Nc1c(C)cccc1C,inactive,–
CC1(OC(=O)c2cccs2)C(=O)C=C2C=C3CCCN3C=C2C1=O (stereo unspecified),active: 14.1 µM,–
O=C(CSc1nc(NS(=O)(=O)c2ccccc2)cc(=O)[nH]1)Nc1ccc(Cl)cc1,active: 20 µM,–
FC(F)(F)c1cc(-c2ccccc2)nc2ncnn12,"inconclusive: 0.126 µM [inhibitor, full curve, poor fit]",–
COc1ccc(NC(=O)c2ccc3c(c2)c(C)c(C)n3Cc2ccc(F)cc2)c(OC)c1,"inconclusive: 89.1 µM [inhibitor, single point]",–
COc1ccc(C2=Nn3c(nc4sc(C(=O)Nc5cccc(C)c5)c(C)c4c3=O)SC2)cc1,inactive,–
Cc1cccnc1NC(=O)C(C)N1C(=O)c2ccccc2C1=O (stereo unspecified),–,inconclusive: -58.7% [inhibitor]
O=C(CSc1ncn(-c2ccccc2)n1)Nc1nc2c(s1)CCCC2,active: 31.6 µM,–
O=C(Nc1ccc2oc(-c3ccncc3)nc2c1)c1ccccc1F,"inconclusive: 89.1 µM [inhibitor, single point]",–
O=C(CN1CCN(Cc2ccccc2)CC1)NC(=O)NCc1ccco1,"inconclusive: 79.4 µM [inhibitor, single point]",–
COC(=O)c1[nH]c(C)c(/C(O)=C2\C(=O)C(=O)N(CCN3CCOCC3)C2c2ccccc2OC)c1C (stereo unspecified),"inconclusive: 79.4 µM [inhibitor, partial curve]",–
COc1ccccc1C(=O)NC(=S)Nc1cccnc1Cl,"inconclusive: 63.1 µM [inhibitor, single point]",–
N#Cc1c(C(F)(F)F)cc(-c2ccccc2)nc1SCC(=O)Nc1sc2c(c1C#N)CCC2,"inconclusive: 50.1 µM [inhibitor, partial curve]",–
Cc1ccc(C)c(NC(=O)C2CCN(c3nn4c(=O)cc(C)nc4s3)CC2)c1,inactive,–
COc1ccc(C(=O)NC2CC2)cc1OC1CCN(Cc2ccc(F)c(F)c2)CC1,"inconclusive: 89.1 µM [inhibitor, single point]",–
Cc1cc(NC(=O)c2ccc(S(=O)(=O)N3CCc4ccccc43)cc2)no1,active: 50.1 µM,–
CC(=O)Nc1cccc(/C(C)=N/NC(=O)c2cc(-c3ccncc3)nc3ccccc23)c1,"inconclusive: 39.8 µM [inhibitor, partial curve]",–
CC(=O)c1cccc(NC(=O)c2noc3c2CSc2ccccc2-3)c1,inactive,–
COc1ccccc1-c1cc(NC(=O)COc2ccccc2Cl)n(-c2ccccc2)n1,inactive,–
Cc1cccc2c1-c1sc(C(=O)NCCc3ccc(Cl)cc3)cc1CO2,active: 8.91 µM,–
Cc1ccc(NC(=O)CS(=O)CC(=O)Nc2ccc3c(c2)OCO3)cc1Cl (stereo unspecified),active: 50.1 µM,–
C#CC1(NC(=O)N(C)C)CCCCC1,"inconclusive: 89.1 µM [inhibitor, single point]",–
O=C(Cc1cc(=O)[nH][nH]1)N/N=C/C=C/c1ccccc1,inactive,–
Cc1c(C(=O)O)cccc1-c1ccc(/C=C2/NC(=O)N(c3ccccc3)C2=O)o1,active: 17.8 µM,–

# 14 of the compounds above, with bars between the fields:
SMILES | Potency | activity change, negative = inhibition
CC1(OC(=O)c2cccs2)C(=O)C=C2C=C3CCCN3C=C2C1=O (stereo unspecified) | active: 14.1 µM | –
FC(F)(F)c1cc(-c2ccccc2)nc2ncnn12 | inconclusive: 0.126 µM [inhibitor, full curve, poor fit] | –
COc1ccc(NC(=O)c2ccc3c(c2)c(C)c(C)n3Cc2ccc(F)cc2)c(OC)c1 | inconclusive: 89.1 µM [inhibitor, single point] | –
O=C(CN1CCN(Cc2ccccc2)CC1)NC(=O)NCc1ccco1 | inconclusive: 79.4 µM [inhibitor, single point] | –
COC(=O)c1[nH]c(C)c(/C(O)=C2\C(=O)C(=O)N(CCN3CCOCC3)C2c2ccccc2OC)c1C (stereo unspecified) | inconclusive: 79.4 µM [inhibitor, partial curve] | –
COc1ccccc1C(=O)NC(=S)Nc1cccnc1Cl | inconclusive: 63.1 µM [inhibitor, single point] | –
N#Cc1c(C(F)(F)F)cc(-c2ccccc2)nc1SCC(=O)Nc1sc2c(c1C#N)CCC2 | inconclusive: 50.1 µM [inhibitor, partial curve] | –
COc1ccc(C(=O)NC2CC2)cc1OC1CCN(Cc2ccc(F)c(F)c2)CC1 | inconclusive: 89.1 µM [inhibitor, single point] | –
CC(=O)Nc1cccc(/C(C)=N/NC(=O)c2cc(-c3ccncc3)nc3ccccc23)c1 | inconclusive: 39.8 µM [inhibitor, partial curve] | –
CC(=O)c1cccc(NC(=O)c2noc3c2CSc2ccccc2-3)c1 | inactive | –
COc1ccccc1-c1cc(NC(=O)COc2ccccc2Cl)n(-c2ccccc2)n1 | inactive | –
Cc1ccc(NC(=O)CS(=O)CC(=O)Nc2ccc3c(c2)OCO3)cc1Cl (stereo unspecified) | active: 50.1 µM | –
C#CC1(NC(=O)N(C)C)CCCCC1 | inconclusive: 89.1 µM [inhibitor, single point] | –
Cc1c(C(=O)O)cccc1-c1ccc(/C=C2/NC(=O)N(c3ccccc3)C2=O)o1 | active: 17.8 µM | –

# The list continues.

SMILES,Potency,"activity change, negative = inhibition"
CN(C)c1ccc(/C=N/NC(=O)c2ccc3c(c2)OCCO3)cc1,inactive,–
O=C(COc1ncnc2sccc12)Nc1cccc(S(=O)(=O)N2CCCC2)c1,"inconclusive: 50.1 µM [inhibitor, partial curve]",–
Cc1cccc(N2CCN(C(=O)c3nn(C)c4c3CSc3ccccc3-4)CC2C)c1 (stereo unspecified),"inconclusive: 89.1 µM [inhibitor, single point]",–
CCc1ccc(/C=C2/SC(=S)N(CCC(=O)Nc3cccc(C(=O)O)c3)C2=O)cc1,"inconclusive: 89.1 µM [inhibitor, single point]",–
Cc1ccc(-c2nc3sccn3c2Nc2ccccc2C)cc1,"inconclusive: 1 µM [inhibitor, full curve, poor fit]",–
CC(/C=C1\SC(=S)N(c2ccc(C(=O)O)cc2)C1=O)=C\c1ccccc1,inactive,–
COc1ccc(/C=N/N2C(=O)CSC2=S)cc1,inactive,–
N#Cc1c(-c2ccccc2)cc(-c2ccccc2)nc1SCC(=O)NCC(=O)O,active: 50.1 µM,–
Cc1ccc(NC(=O)N2CCCC(c3nc(-c4ccc(F)cc4)no3)C2)cc1 (stereo unspecified),–,inconclusive: -34.3% [inhibitor]
CCN1CCCC1CN(Cc1cc2cc(C)ccc2[nH]c1=O)C(=O)Nc1ccccc1OC (stereo unspecified),"inconclusive: 63.1 µM [inhibitor, single point]",–
CC(C)(C)OC(=O)NCCCC[C@H](NC(=O)c1nc[nH]c1C(=O)NC1CCN(C(=O)OC(C)(C)C)CC1)C(=O)OC(C)(C)C,"inconclusive: 8.91 µM [inhibitor, full curve, poor fit]",–
Cc1ccc(CSC2=Nc3ccccc3C3=NC(CC(=O)NC4CCCCC4)C(=O)N23)c(C)c1 (stereo unspecified),"inconclusive: 39.8 µM [inhibitor, single point]",–
COc1ccc2nc3sc(C(=O)Nc4cc(Cl)c(OC)cc4OC)cc3cc2c1,"inconclusive: 56.2 µM [inhibitor, partial curve]",–
NC(N)=Nc1nc2ccc([N+](=O)[O-])cc2[nH]1,"inconclusive: 5.62 µM [inhibitor, full curve, poor fit]",–
CCOCCCn1c(=N)c(C(=O)NCc2ccco2)cc2c(=O)n3ccccc3nc21,inactive,–
CCCc1ccc(OCc2ccc(C(=O)NCc3cccnc3)o2)c(OC)c1,"inconclusive: 3.55 µM [inhibitor, full curve]",–
O=C(CSc1nc2sccc2c(=O)[nH]1)N1CCN(c2ccccc2)CC1,active: 25.1 µM,–
CCOC(=O)c1c(C)sc(-c2c(-c3ccc4c(c3)OCCO4)[nH]c3c2c(=O)[nH]c(=O)n3C)c1O,"inconclusive: 50.1 µM [inhibitor, partial curve, poor fit]",–
COc1ccc(NC(=O)C2(c3cccs3)CCOCC2)cc1Cl,inactive,–
CNc1ccc(/C=C(\CCC(=O)O)c2nc3ccccc3s2)cc1[N+](=O)[O-],active: 31.6 µM,–
CC(=O)NS(=O)(=O)c1ccc(NC(=O)/C=C/c2ccco2)cc1,"inconclusive: 5.62 µM [inhibitor, full curve]",–
Cc1nnc(SCC2=C(C(=O)O)N3C(=O)C(NC(=O)Cn4nc(C)c(Cl)c4C)C3SC2)s1 (stereo unspecified),active: 39.8 µM,–
